Source: patent publication US20050112694A1
These are yes or no findings as the source states them, for the method shown. Some results given as binding are weak or reduced against the parent protein; the word gives no strength.

The chains behind the UniProt entries cited, without tags or fusion partners. Where a name states a change or a piece, a line headed by the entry shows the natural chain unless it says otherwise.
UniProt P24394: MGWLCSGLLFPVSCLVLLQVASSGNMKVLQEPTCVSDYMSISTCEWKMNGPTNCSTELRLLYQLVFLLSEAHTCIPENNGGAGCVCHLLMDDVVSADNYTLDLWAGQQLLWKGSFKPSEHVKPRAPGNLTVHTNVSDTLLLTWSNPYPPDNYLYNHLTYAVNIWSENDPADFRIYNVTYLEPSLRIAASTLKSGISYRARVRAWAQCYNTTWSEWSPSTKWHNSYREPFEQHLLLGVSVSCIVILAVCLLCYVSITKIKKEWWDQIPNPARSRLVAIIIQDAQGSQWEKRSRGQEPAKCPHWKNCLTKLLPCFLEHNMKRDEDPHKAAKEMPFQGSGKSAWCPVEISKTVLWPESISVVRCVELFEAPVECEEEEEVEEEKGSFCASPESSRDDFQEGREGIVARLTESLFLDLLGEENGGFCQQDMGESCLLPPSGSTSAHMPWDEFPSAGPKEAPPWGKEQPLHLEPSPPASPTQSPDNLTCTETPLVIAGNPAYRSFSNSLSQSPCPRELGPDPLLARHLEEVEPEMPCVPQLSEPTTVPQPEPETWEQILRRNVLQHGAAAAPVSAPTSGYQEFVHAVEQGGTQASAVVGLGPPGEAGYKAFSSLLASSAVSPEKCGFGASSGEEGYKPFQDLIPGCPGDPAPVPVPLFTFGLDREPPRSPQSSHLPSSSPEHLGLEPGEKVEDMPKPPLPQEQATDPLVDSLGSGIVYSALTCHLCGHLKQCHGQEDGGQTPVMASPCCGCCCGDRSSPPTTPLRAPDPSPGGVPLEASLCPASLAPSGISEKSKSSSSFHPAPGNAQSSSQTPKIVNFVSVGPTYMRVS

Assays:
[1] = target: human IL-4 receptor alpha (human) (UniProt P24394); test: screen of a human light chain variable region library paired with H1
[2] = target: human IL-4 receptor alpha (human) (UniProt P24394); test: biochemical binding assay and/or the method of Example 2 (CD23 on human B cells)

binding [1] | binding [2] | Binder
binds | binds | L3H1 (antibody, V domains shown) VH: EVQLVQSGGGLVHPGGSLRLSCAGSGFTFSRNAMFWVRQAPGKGLEWVSGIGTGGATNYADSVKGRFTISRDNAKNSLYLQMNSLRAEDMAVYYCARGRYYFDYWGQGTLVTVSS VL: EIVLTQSPGTLSLSPGERATLSCRASQTVNSDYLAWYQQKPGQAPRLLIYGASSRATGIPDRFSGSGSGTDFTLTISRLEPEDFAVYYCQQYGRSPPWTFGQGTKVDIK
binds | binds | L4H1 (antibody, V domains shown) VH: EVQLVQSGGGLVHPGGSLRLSCAGSGFTFSRNAMFWVRQAPGKGLEWVSGIGTGGATNYADSVKGRFTISRDNAKNSLYLQMNSLRAEDMAVYYCARGRYYFDYWGQGTLVTVSS VL: EIVMTQSPGTLSLSPGERATLSCRASQSVSSDYLAWYQQKPGQAPRLLIYGASSRASGIPDRFSGSGFGTDFTLTISRLEPEDFAIYYCQQYGSSPPWTFGQGTKVEIK
binds | binds | L5H1 (antibody, V domains shown) VH: EVQLVQSGGGLVHPGGSLRLSCAGSGFTFSRNAMFWVRQAPGKGLEWVSGIGTGGATNYADSVKGRFTISRDNAKNSLYLQMNSLRAEDMAVYYCARGRYYFDYWGQGTLVTVSS VL: DIVLTQSPATLSLSPGERATLSCRASQSVNSNYLAWYQQKPGQAPRLLIYGTSYRATGIPDRFSGSGSGTDFTLTITRLEPEDFAVYYCQQYGSSPPWTFGQGTRLEIK
binds | binds | L6H1 (antibody, V domains shown) VH: EVQLVQSGGGLVHPGGSLRLSCAGSGFTFSRNAMFWVRQAPGKGLEWVSGIGTGGATNYADSVKGRFTISRDNAKNSLYLQMNSLRAEDMAVYYCARGRYYFDYWGQGTLVTVSS VL: DIVLTQTPATLSLSPGERATLSCRASQSVGSSYLAWYQQRPGQAPRLLIYGASSRATGIPDRFSGSGSGTDFTLTISRLEPEDFAVYYCQQYGSSPPWMFGQGTKVEIK
